Data taken from paper PMC8860602.
Results are given in words; binding and its absence hold for the method and conditions named. For part of these data: Binding seen in cells or lysates may run through a third protein. Some binding calls cover weakened binding; strength is not graded here. For part of these data: Sequences can lack the tags named with a protein. Each block holds one binder with its values, some of them ahead of it.

Columns and labels:
[1] = target: 53BP1, endogenous in mouse embryonic fibroblasts (mouse (endogenous in MEFs)) (UniProt P70399); assay: co-IP; endogenous proteins; IPs with anti-53BP1, anti-ACLY or control IgG from extracts of 53BP1+/+ or 53BP1-/- MEFs and of control or 53BP1-depleted HeLa cells; RIPA buffer, Protein G Sepharose, 4 °C overnight; western blot
[2] = target: T1, HA-53BP1-N (aa 1–699; N-terminal S/T-Q motif) (human), Q12888; assay: co-IP; HA-tagged 53BP1 constructs and GFP-tagged ACLY constructs co-transfected in HEK293T cells; RIPA buffer, Protein G Sepharose, 4 °C overnight; western blot; conditions: remark: other sources report otherwise
T1 chain: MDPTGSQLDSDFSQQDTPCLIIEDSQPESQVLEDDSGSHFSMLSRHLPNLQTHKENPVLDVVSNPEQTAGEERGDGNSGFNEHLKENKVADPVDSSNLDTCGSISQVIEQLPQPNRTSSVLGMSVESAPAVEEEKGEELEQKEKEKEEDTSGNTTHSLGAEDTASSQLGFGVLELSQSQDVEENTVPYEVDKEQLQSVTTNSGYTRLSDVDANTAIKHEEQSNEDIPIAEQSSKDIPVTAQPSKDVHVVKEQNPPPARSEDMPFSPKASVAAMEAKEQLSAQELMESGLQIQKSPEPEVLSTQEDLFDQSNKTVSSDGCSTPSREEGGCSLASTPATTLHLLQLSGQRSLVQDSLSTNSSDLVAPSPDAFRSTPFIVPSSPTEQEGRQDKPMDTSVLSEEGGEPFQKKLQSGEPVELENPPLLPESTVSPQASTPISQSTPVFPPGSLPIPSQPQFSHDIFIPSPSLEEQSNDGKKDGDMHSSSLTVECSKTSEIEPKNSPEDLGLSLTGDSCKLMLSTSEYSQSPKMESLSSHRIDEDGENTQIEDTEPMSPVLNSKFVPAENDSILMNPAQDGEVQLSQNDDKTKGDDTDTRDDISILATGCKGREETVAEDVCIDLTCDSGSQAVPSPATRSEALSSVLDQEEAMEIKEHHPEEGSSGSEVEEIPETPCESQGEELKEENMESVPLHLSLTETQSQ

[3] = target: T2, GST-53BP1-N (GST-tagged N-terminus of 53BP1) (human), Q12888; assay: pull-down; GST or GST-53BP1-N on Glutathione Sepharose 4B beads, 200 ng purified ACLY in 0.5 ml binding buffer (20 mM Tris-HCl pH 7.5, 150 mM NaCl, 0.5% NP40, 1 mM EDTA, 1 mM DTT, 10% glycerol), 4 °C, 90 min; washed with NTEN (300 mM NaCl); anti-ACLY western blot; both purified; conditions: remark: other sources report otherwise
T2 chain: T1 chain

binding [1]: binds
B1: ACLY, endogenous in mouse embryonic fibroblasts (enzyme, UniProt Q91V92 1-1091)
chain: MSAKAISEQTGKELLYKYICTTSAIQNRFKYARVTPDTDWAHLLQDHPWLLSQSLVVKPDQLIKRRGKLGLVGVNLSLDGVKSWLKPRLGHEATVGKAKGFLKNFLIEPFVPHSQAEEFYVCIYATREGDYVLFHHEGGVDVGDVDAKAQKLLVGVDEKLNTEDIKRHLLVHAPEDKKEVLASFISGLFNFYEDLYFTYLEINPLVVTKDGVYILDLAAKVDATADYICKVKWGDIEFPPPFGREAYPEEAYIADLDAKSGASLKLTLLNPKGRIWTMVAGGGASVVYSDTICDLGGVNELANYGEYSGAPSEQQTYDYAKTILSLMTREKHPEGKILIIGGSIANFTNVAATFKGIVRAIRDYQGPLKEHEVTIFVRRGGPNYQEGLRVMGEVGKTTGIPIHVFGTETHMTAIVGMALGHRPIPNQPPTAAHTANFLLNASGSTSTPAPSRTASFSESRADEVAPAKKAKPAMPQGKSATLFSRHTKAIVWGMQTRAVQGMLDFDYVCSRDEPSVAAMVYPFTGDHKQKFYWGHKEILIPVFKNMADAMKKHPEVDVLINFASLRSAYDSTMETMNYAQIRTIAIIAEGIPEALTRKLIKKADQKGVTIIGPATVGGIKPGCFKIGNTGGMLDNILASKLYRPGSVAYVSRSGGMSNELNNIISRTTDGVYEGVAIGGDRYPGSTFMDHVLRYQDTPGVKMIVVLGEIGGTEEYKICRGIKEGRLTKPVVCWCIGTCATMFSSEVQFGHAGACANQASETAVAKNQALKEAGVFVPRSFDELGEIIQSVYEDLVAKGAIVPAQEVPPPTVPMDYSWARELGLIRKPASFMTSICDERGQELIYAGMPITEVFKEEMGIGGVLGLLWFQRRLPKYSCQFIEMCLMVTADHGPAVSGAHNTIICARAGKDLVSSLTSGLLTIGDRFGGALDAAAKMFSKAFDSGIIPMEFVNKMKKEGKLIMGIGHRVKSINNPDMRVQILKDFVKQHFPATPLLDYALEVEKITTSKKPNLILNVDGFIGVAFVDMLRNCGSFTREEADEYVDIGALNGIFVLGRSMGFIGHYLDQKRLKQGLYRHPWDDISYVLPEHMSM

binding [2]: binds
B2: GFP-ACLY (full length), P53396-1 1-1101 (enzyme)
chain: MSAKAISEQTGKELLYKFICTTSAIQNRFKYARVTPDTDWARLLQDHPWLLSQNLVVKPDQLIKRRGKLGLVGVNLTLDGVKSWLKPRLGQEATVGKATGFLKNFLIEPFVPHSQAEEFYVCIYATREGDYVLFHHEGGVDVGDVDAKAQKLLVGVDEKLNPEDIKKHLLVHAPEDKKEILASFISGLFNFYEDLYFTYLEINPLVVTKDGVYVLDLAAKVDATADYICKVKWGDIEFPPPFGREAYPEEAYIADLDAKSGASLKLTLLNPKGRIWTMVAGGGASVVYSDTICDLGGVNELANYGEYSGAPSEQQTYDYAKTILSLMTREKHPDGKILIIGGSIANFTNVAATFKGIVRAIRDYQGPLKEHEVTIFVRRGGPNYQEGLRVMGEVGKTTGIPIHVFGTETHMTAIVGMALGHRPIPNQPPTAAHTANFLLNASGSTSTPAPSRTASFSESRADEVAPAKKAKPAMPQDSVPSPRSLQGKSTTLFSRHTKAIVWGMQTRAVQGMLDFDYVCSRDEPSVAAMVYPFTGDHKQKFYWGHKEILIPVFKNMADAMRKHPEVDVLINFASLRSAYDSTMETMNYAQIRTIAIIAEGIPEALTRKLIKKADQKGVTIIGPATVGGIKPGCFKIGNTGGMLDNILASKLYRPGSVAYVSRSGGMSNELNNIISRTTDGVYEGVAIGGDRYPGSTFMDHVLRYQDTPGVKMIVVLGEIGGTEEYKICRGIKEGRLTKPIVCWCIGTCATMFSSEVQFGHAGACANQASETAVAKNQALKEAGVFVPRSFDELGEIIQSVYEDLVANGVIVPAQEVPPPTVPMDYSWARELGLIRKPASFMTSICDERGQELIYAGMPITEVFKEEMGIGGVLGLLWFQKRLPKYSCQFIEMCLMVTADHGPAVSGAHNTIICARAGKDLVSSLTSGLLTIGDRFGGALDAAAKMFSKAFDSGIIPMEFVNKMKKEGKLIMGIGHRVKSINNPDMRVQILKDYVRQHFPATPLLDYALEVEKITTSKKPNLILNVDGLIGVAFVDMLRNCGSFTREEADEYIDIGALNGIFVLGRSMGFIGHYLDQKRLKQGLYRHPWDDISYVLPEHMSM

binding [3]: binds
B3: recombinant ACLY protein (Sino Biological), P53396 1-1101 (enzyme)
chain: B2 chain
